In article PMC3192838:
These are yes or no findings as the source states them, for the method shown. Binding seen in cells or lysates may run through a third protein. Some entries that bind do so weakly or less than the wild type.

Amino acid sequences for entries named in this document (tags omitted). A change or cut given only in a name is not applied to a line headed by its entry.
UniProt P19525: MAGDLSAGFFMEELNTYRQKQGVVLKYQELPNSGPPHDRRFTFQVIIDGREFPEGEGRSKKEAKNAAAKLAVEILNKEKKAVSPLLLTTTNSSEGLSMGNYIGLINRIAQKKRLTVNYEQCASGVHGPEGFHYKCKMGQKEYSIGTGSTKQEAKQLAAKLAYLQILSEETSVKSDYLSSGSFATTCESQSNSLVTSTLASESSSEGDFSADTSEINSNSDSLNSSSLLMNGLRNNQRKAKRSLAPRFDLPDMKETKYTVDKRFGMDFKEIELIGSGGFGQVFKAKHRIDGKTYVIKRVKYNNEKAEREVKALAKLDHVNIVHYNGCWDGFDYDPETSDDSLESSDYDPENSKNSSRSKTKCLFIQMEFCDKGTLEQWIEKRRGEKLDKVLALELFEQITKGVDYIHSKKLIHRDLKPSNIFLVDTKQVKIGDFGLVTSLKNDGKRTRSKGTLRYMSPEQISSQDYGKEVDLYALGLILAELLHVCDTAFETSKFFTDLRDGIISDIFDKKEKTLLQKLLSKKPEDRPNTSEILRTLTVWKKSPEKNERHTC
UniProt Q7Z434: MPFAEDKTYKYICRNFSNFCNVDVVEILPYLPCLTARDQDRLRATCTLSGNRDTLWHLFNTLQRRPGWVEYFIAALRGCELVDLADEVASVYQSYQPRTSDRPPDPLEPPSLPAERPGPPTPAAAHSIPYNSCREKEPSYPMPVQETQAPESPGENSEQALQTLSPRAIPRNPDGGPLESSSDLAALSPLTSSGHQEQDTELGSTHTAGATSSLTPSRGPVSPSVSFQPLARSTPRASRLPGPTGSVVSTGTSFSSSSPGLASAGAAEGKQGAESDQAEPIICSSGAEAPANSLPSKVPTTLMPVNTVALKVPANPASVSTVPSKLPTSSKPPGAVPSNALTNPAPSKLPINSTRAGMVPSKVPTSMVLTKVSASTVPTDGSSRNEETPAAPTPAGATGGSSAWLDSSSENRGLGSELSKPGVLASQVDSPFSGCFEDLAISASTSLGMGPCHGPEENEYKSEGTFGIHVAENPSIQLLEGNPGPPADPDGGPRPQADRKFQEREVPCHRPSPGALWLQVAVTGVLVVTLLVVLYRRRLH

How the values were obtained:
[1] = biological target: PKR, dsRNA-dependent eIF2α kinase (human (endogenous in Huh7.25.CD81)) (UniProt P19525); experiment: condition: only cells treated with the PRI peptide (30 mM as printed in the methods); co-IP; as a1, but cells infected with JFH1 in presence of the cell-permeable PRI peptide (re-added every hour); immunoprecipitation of endogenous PKR; immunoblot
[2] = biological target: PKR, dsRNA-dependent eIF2α kinase (human (endogenous in Huh7.25.CD81)) (UniProt P19525); experiment: co-IP; immunoprecipitation of endogenous PKR from extracts (3.5 mg) of Huh7.25.CD81 cells infected with JFH1 (m.o.i = 0.2), alone or in presence of C16; lysis buffer 50 mM TRIS-HCl pH 7.5, 140 mM NaCl, 5% glycerol, 1% CHAPS; antibody at 4°C overnight, A/G-agarose beads; immunoblot (Odyssey)
[3] = biological target: MAVS, mitochondria-bound adapter protein (human (endogenous in Huh7.25.CD81)) (UniProt Q7Z434); experiment: co-IP; immunoprecipitation of endogenous MAVS from extracts (4.5 mg) of Huh7.25.CD81 cells transfected with siRNA Control or siRNA ISG15 for 48 hrs and infected with JFH1 (m.o.i = 0.2); 1% CHAPS lysis buffer; immunoblot for PKR, MAVS, RIG-I, TRAF3

| Substance | binding [1] | binding [2] | binding [3] |
| --- | --- | --- | --- |
| MAVS, mitochondria-bound adapter protein (from UniProt Q7Z434 1-540) | no binding | binds |  |
| PKR, dsRNA-dependent eIF2α kinase (from UniProt P19525-1 1-551) |  |  | binds |
